Experimental data published in PubChem BioAssay AID504327 (National Center for Advancing Translational Sciences (NCATS), 2011).
Out of some 390,000 compounds screened, about 820 (0.21%) were called active. Inconclusive means that the source gave no clear call. Such entries were picked first, then a sample of the others. Calls follow the shape of the dose curve; as a rule, active = well fitted inhibition curve with a large enough effect; inconclusive = small, poorly fitted or top-dose-only effect, or another doubt; inactive = no such curve, though single readings can be large or run the other way. A potency beside an inconclusive call is a rough fit, not a confirmed value.

By UniProt entry, the sequences of proteins in these tests, tags left out.
UniProt Q92830, whole entry, looked up: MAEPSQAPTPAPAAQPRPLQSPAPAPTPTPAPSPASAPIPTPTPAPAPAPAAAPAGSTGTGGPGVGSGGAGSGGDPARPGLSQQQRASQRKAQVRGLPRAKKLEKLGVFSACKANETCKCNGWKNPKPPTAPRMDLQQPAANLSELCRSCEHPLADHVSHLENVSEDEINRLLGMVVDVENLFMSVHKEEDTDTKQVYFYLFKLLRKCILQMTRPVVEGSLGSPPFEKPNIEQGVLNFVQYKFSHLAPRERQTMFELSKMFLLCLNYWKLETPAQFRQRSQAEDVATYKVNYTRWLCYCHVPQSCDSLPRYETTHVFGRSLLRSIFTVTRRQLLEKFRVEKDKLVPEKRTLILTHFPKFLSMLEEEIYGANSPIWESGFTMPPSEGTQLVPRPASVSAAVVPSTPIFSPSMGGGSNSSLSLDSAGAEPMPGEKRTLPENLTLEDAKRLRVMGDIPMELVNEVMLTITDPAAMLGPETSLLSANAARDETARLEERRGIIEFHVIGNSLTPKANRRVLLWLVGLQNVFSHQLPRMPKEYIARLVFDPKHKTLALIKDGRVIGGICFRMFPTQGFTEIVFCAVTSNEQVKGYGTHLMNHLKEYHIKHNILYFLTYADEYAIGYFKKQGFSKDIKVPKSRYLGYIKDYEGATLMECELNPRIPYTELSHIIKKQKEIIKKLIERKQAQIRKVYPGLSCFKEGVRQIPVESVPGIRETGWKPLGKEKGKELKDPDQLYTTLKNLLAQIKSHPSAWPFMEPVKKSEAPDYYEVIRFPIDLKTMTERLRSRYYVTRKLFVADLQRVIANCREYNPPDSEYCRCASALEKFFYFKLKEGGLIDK

The compounds below were run against Histone acetyltransferase KAT2A (Homo sapiens) (UniProt Q92830) (assay: qHTS Assay for Inhibitors of GCN5L2). Details: GCN5L2 HAT assay, ThioGlo1 CoA-SH fluorescence; series mostly up to 58.9 µM.
Procedure, shortened: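 Fluorescence readout, Ex340nm/Em540nm: ThioGlo1 (50uM final) reacts with free CoA thiol released as 20nM GCN5L2 acetylates H3(1-25) peptide (75uM) using acetyl-CoA (70uM). Compound and enzyme sat 15 min beforehand; 20 min room-temperature reaction.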
Potency is read from the fitted curve at half-maximal effect.

| SMILES | Potency |
| --- | --- |
| CCC(C(=O)NC(C)(C)C)N(Cc1ccc(F)cc1)C(=O)c1snc(C(N)=O)c1N (centres undefined) | inconclusive: 0.891 µM [inhibitor, partial curve, poor fit] |
| O=C(NN=C1CCCCCCCCCCC1)c1ccncc1 | inactive |
| COC(=O)C1=CN(CCCN2CCCC2=O)C=C(C(=O)OC)C1c1ccccc1C(F)(F)F | inconclusive: 35.5 µM [inhibitor, single point] |
| COCCCN(C(=S)Nc1ccc(C)cc1Cl)C(C)c1ccncc1 (centres undefined) | inactive |
| N#Cc1c(C(F)(F)F)cc(-c2cccc(Cl)c2)[nH]c1=O | inconclusive: 11.2 µM [inhibitor, partial curve, poor fit] |
| CC(=O)Nc1ccc(SC[C@H](C)CN2CC[C@H](C(C)(C)C)CCC2=O)cc1 | inconclusive: 12.6 µM [inhibitor, partial curve] |
| CC1CC(C)C[N+](=C2C=C(N3CCCC3)CC(C)(C)C2)C1 (centres undefined) | inactive |
| CN(Cc1ccc(F)cc1)C(=O)c1cc(COc2ccc(-n3cncn3)cc2)on1 | inconclusive: 0.126 µM [inhibitor, full curve, poor fit] |
| Cc1cc(/C=C(\C#N)c2nc3ccccc3[nH]2)c(C)n1C | inactive |
| Cc1c(C(=O)NCc2ccccc2)sc2nc3n(c(=O)c12)CCCCC3 | inconclusive: 39.8 µM [inhibitor, single point] |
| NC(=O)C1CCN(C(=O)C2CC(=O)N(c3ccc4c(c3)OCCO4)C2)CC1 (centres undefined) | inactive |
| CC1C(=O)C(C)C(c2cccc(Br)c2)NC1c1cccc(Br)c1 (centres undefined) | inconclusive: 7.08 µM [inhibitor, single point] |
| CC(C)=NNc1nc2c(c(=O)n(C)c(=O)n2C)n1CCc1ccccc1 | inconclusive: 0.794 µM [inhibitor, single point] |
| O=C(NC1(O)C(=O)c2ccccc2C1=O)c1c(Cl)cccc1Cl | inactive |
| O=C(CSc1nnc(CNc2ccc(F)cc2)o1)N1c2ccccc2Sc2ccccc21 | inactive |
| Cc1cccc(OCc2nnc(SCC(=O)O)n2-c2ccccc2)c1 | inactive |
| COc1ccc(/C=C(/NC(=O)c2cccs2)C(=O)Nc2ccc(C)cc2)cc1OC | inactive |
| CCCc1ccc(OCC(=O)Nc2scc(-c3cccs3)c2C(=O)OC)cc1 | inconclusive: 31.6 µM [inhibitor, single point] |
| CCOC(=O)Cc1csc(N/N=C\c2cccc(Br)c2)n1 | inconclusive: 17.8 µM [inhibitor, single point] |
| CN1CCN(S(=O)(=O)c2ccc3c(c2)oc(=O)n3C)CC1 | inconclusive: 2 µM [inhibitor, full curve, poor fit] |
| CC/C=C/C(=O)N1CC2(CC(c3cccc(NC(=O)c4ccccc4)c3)=NO2)C[C@@H]1C(N)=O (some centres undefined) | inconclusive: 39.8 µM [inhibitor, single point] |
| CCCCCCCCCCCCCC(=O)O | inconclusive: 15.8 µM [inhibitor, partial curve] |
| O=C(Oc1ccc2c(-c3ccccc3)cc(=O)oc2c1)C1CCCCC1 | inconclusive: 0.398 µM [inhibitor, partial curve, poor fit] |

| SMILES | Potency |
| --- | --- |
| CCCCCCNC(=O)C(C#N)c1nc2ccccc2nc1N1CCCC1 (centres undefined) | inconclusive: 39.8 µM [inhibitor, single point] |
| Cc1ccc(COc2ccc3oc(-c4ccccc4)c(C(=O)O)c3c2)cc1 | inactive |
| CCCn1c(N)c(N(CCOC)C(=O)COC(=O)c2ccccc2NCCO)c(=O)[nH]c1=O | inactive |
| CCCCOc1ccc(C(=O)NCC(=O)NC(C)CCc2ccccc2)cc1 (centres undefined) | inconclusive: 0.631 µM [inhibitor, single point] |
| O=C(N/N=C/C=C/c1cccc([N+](=O)[O-])c1)c1ccncc1 | inconclusive: 15.8 µM [inhibitor, partial curve, poor fit] |
| CCN(C(=O)Cn1c(SCC(=O)Nc2ccc(OC)cc2)nc2ccccc21)c1cccc(C)c1 | inconclusive: 39.8 µM [inhibitor, single point] |
| O=C1CCc2ccc(OCCCCN3CCN(c4cccc(Cl)c4Cl)CC3)cc2N1 | inconclusive: 28.2 µM [inhibitor, partial curve] |
| Cc1cc(C)n2c(Nc3ccccc3C)c(-c3cccs3)nc2n1 | inactive |
| Cc1ccc(N(C)S(=O)(=O)c2cc3c(cc2C)NC(=O)CO3)cc1 | inconclusive: 22.4 µM [inhibitor, single point] |
| C=C(C)Cn1c(-c2cccs2)n[nH]c1=S | inactive |
| O=C(Cc1ccc(NC(=O)N2CCSc3ncccc32)cc1)NCc1ccccc1 | inconclusive: 0.794 µM [inhibitor, single point] |
| CCc1cc(C(=O)Nc2ccc(S(=O)(=O)NC3=NCCCCC3)cc2)sc1C | inconclusive: 35.5 µM [inhibitor, single point] |
| COc1cccc(/C=N/n2c(-c3n[nH]c4c3CCC4)n[nH]c2=S)c1OC | inactive |
| O=S(=O)(Nc1ncccn1)c1ccc(NC(=S)Nc2ccccc2Cl)cc1 | inactive |
| O=C(NNS(=O)(=O)c1ccccc1[N+](=O)[O-])c1cccc([N+](=O)[O-])c1 | inactive |
| COc1ccc(NC(=O)Cn2nnc(-c3ccccc3NC(=O)c3cccs3)n2)cc1 | inactive |
| O=C(c1cc([N+](=O)[O-])ccc1N1CCCCC1)N1CCCCC1 | inconclusive: 0.794 µM [inhibitor, partial curve, poor fit] |
| CCOC(=O)C1(CCCc2ccccc2)CCN(C2CCSCC2)CC1 | inconclusive: 6.31 µM [inhibitor, single point] |
| Cc1cc(CNC(=S)Nc2ccc(S(=O)(=O)Nc3ncccn3)cc2)nn1C | inconclusive: 0.398 µM [inhibitor, full curve, poor fit] |
| Cc1ccc(/C=[N+](\[O-])c2ccc(N(C)C)cc2)c2nsnc12 | inactive |
| COc1ccc(N2CCN(C(=O)c3ccc4c(c3)NC(=O)C(CSCc3cccc(F)c3)N4)CC2)cc1 (centres undefined) | inconclusive: 39.8 µM [inhibitor, single point] |
| COc1cc(/C=C(\C#N)C(=O)N2CCc3ccccc32)ccc1O | inconclusive: 0.562 µM [inhibitor, full curve, poor fit] |
| COc1cc2ncc(S(=O)(=O)c3ccccc3)c(N3CCCC(C)C3)c2cc1OC (centres undefined) | inconclusive: 20 µM [inhibitor, partial curve] |

| SMILES | Potency |
| --- | --- |
| COc1ccc(C(=O)C2CCN(S(=O)(=O)c3ccc4c(c3)OCCO4)CC2)cc1 | inconclusive: 0.794 µM [inhibitor, full curve, poor fit] |
| COc1ccc2cc(CCNC(=O)c3c(-c4ccccc4Cl)noc3C)c(=O)[nH]c2c1 | inconclusive: 12.6 µM [inhibitor, partial curve] |
| CCCS(=O)(=O)N1CC(=O)N(c2ccccc2F)C(C)(C(=O)NC2CCCCCC2)C1 (centres undefined) | inactive |
| CNC(=S)N(CCc1c(C)[nH]c2ccc(Cl)cc12)Cc1cccnc1 | inconclusive: 10 µM [inhibitor, partial curve, poor fit] |
| COC(=O)N1CCc2c(sc(NC(=O)C3=COCCO3)c2C#N)C1 | inactive |
| Cc1ccc(NC(=O)C2=C(O)c3sccc3N(C)S2(=O)=O)cc1 | inconclusive: 28.2 µM [inhibitor, single point] |
| CCOC(=O)/C(C#N)=C1/C=Nc2ccccc2N1 | inconclusive: 1 µM [inhibitor, full curve, poor fit] |
| CCC1CCCCN1S(=O)(=O)c1ccc(NC(=O)c2snnc2C)cc1 (centres undefined) | inactive |
| Cc1ccc(C2=NN(CCC(=O)NCCc3cccc(C)c3)C(=O)CC2)cc1 | inconclusive: 6.31 µM [inhibitor, single point] |
| O=C(COc1cccnc1[N+](=O)[O-])Nc1ncc(Cl)cc1Cl | inconclusive: 28.2 µM [inhibitor, single point] |
| Cn1c(NNC(=O)c2ccccc2F)cc(=O)n(C)c1=O | inconclusive: 12.6 µM [inhibitor, partial curve, poor fit] |
| O=C(COC(=O)c1ccc(Cl)c(S(=O)(=O)N2CCOCC2)c1)NCc1ccco1 | inactive |
| COC(=O)Cc1c(C)c2ccc3c(c2oc1=O)CN(Cc1ccc(C)cc1)CO3 | inconclusive: 28.2 µM [inhibitor, partial curve] |
| COc1cccc(/C=C2\Oc3cc(OC(=O)N4CCOCC4)ccc3C2=O)c1 | inactive |
| Cc1cc(C)c(O)c(-c2n[nH]c3c2C(c2cccc(O)c2)N(Cc2ccco2)C3=O)c1 (centres undefined) | inconclusive: 0.891 µM [inhibitor, full curve] |
| CCC1(C)Cc2c(sc3nnn(CC(=O)Nc4ccc(C)cc4)c(=O)c23)CO1 (centres undefined) | inconclusive: 39.8 µM [inhibitor, single point] |
| COc1cccc(CNS(=O)(=O)c2c(C)nc3sccn3c2=O)c1 | inconclusive: 39.8 µM [inhibitor, single point] |
| Cc1cnc(C(=O)N2CCCC(C(=O)c3ccc(C(F)(F)F)cc3)C2)cn1 (centres undefined) | inconclusive: 39.8 µM [inhibitor, single point] |
| Cc1cc(S(=O)(=O)Nc2ccc(N(C)C)cc2)c(C)s1 | inactive |
| CCN(CC)CCNC(=O)Cc1nn(CC)c(=O)c2ccccc12 | inactive |
| O=C1c2ccc(Oc3ccc4c(c3)C(=O)N(CCCO)C4=O)cc2C(=O)N1CCCO | inconclusive: 15.8 µM [inhibitor, partial curve] |
| O=C(Nc1nc2ccccc2s1)c1ccccc1[N+](=O)[O-] | inconclusive: 0.708 µM [inhibitor, single point] |
| OCCN1CCN(C(=S)c2ccc(-c3ccccc3)cc2)CC1 | inconclusive: 5.62 µM [inhibitor, partial curve, poor fit] |

Random excerpt: four compounds from above, in no set order.

| SMILES | Potency |
| --- | --- |
| CCOC(=O)/C(C#N)=C1/C=Nc2ccccc2N1 | inconclusive: 1 µM [inhibitor, full curve, poor fit] |
| O=C(Nc1nc2ccccc2s1)c1ccccc1[N+](=O)[O-] | inconclusive: 0.708 µM [inhibitor, single point] |
| Cc1cc(C)c(O)c(-c2n[nH]c3c2C(c2cccc(O)c2)N(Cc2ccco2)C3=O)c1 (centres undefined) | inconclusive: 0.891 µM [inhibitor, full curve] |
| OCCN1CCN(C(=S)c2ccc(-c3ccccc3)cc2)CC1 | inconclusive: 5.62 µM [inhibitor, partial curve, poor fit] |
